Percent effect of library compounds

Amino acid sequences for entries named in this document (tags omitted). Residues count along the entry.
UniProt A4I591, 1-473: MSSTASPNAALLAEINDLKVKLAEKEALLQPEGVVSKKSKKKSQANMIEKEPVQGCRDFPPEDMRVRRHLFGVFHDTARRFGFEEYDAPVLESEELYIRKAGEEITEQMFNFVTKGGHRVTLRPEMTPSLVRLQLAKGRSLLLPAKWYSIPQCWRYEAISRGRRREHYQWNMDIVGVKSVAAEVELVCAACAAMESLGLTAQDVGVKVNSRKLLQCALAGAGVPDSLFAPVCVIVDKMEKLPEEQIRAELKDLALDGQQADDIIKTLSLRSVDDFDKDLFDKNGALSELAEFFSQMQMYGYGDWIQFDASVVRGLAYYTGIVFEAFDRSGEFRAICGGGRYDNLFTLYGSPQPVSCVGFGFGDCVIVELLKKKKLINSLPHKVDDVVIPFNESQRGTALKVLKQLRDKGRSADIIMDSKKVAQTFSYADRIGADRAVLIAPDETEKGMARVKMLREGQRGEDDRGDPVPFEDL
UniProt P9WFT3, whole entry: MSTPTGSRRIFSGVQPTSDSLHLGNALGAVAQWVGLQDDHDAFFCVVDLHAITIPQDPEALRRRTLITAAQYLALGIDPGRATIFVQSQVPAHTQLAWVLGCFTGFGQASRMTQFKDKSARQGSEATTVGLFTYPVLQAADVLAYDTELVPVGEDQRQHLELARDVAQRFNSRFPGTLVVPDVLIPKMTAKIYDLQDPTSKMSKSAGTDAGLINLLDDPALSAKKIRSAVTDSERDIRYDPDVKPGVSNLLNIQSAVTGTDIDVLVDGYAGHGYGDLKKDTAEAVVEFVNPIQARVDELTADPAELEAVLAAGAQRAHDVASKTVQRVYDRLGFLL
UniProt P9WNZ1, whole entry: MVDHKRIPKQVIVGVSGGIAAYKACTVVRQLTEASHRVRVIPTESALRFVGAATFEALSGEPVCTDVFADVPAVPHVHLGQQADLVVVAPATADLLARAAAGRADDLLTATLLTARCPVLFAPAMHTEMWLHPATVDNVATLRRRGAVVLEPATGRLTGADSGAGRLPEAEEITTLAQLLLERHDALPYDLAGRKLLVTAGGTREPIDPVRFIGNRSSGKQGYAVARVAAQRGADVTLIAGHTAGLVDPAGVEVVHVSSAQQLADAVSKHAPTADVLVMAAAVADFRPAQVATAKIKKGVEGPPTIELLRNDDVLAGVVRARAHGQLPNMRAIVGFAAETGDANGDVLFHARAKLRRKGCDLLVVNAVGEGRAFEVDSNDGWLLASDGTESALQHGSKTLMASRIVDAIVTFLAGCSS

From ChEMBL document CHEMBL3988442, “University of Dundee, Small-Polar-MMV Screening Library” (2021).

LiHisRS: 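Enzyme assay of histidyl-tRNA synthetase; the read-out is not stated. Target: Histidine-tRNA ligase, Leishmania infantum (UniProt A4I591). Compounds at 30 µM. Higher reads as stronger inhibition (inferred: compounds with an IC50 in retests scored well above the rest). The assay is labelled LdHisRS but filed under L. infantum. Size under these conditions: about 69,000 compounds, about 410 of them at 50% or above in at least one test.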
MtTrpRS: 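Enzyme assay of tryptophanyl-tRNA synthetase; the read-out is not stated. Target: Tryptophan-tRNA ligase, Mycobacterium tuberculosis (UniProt P9WFT3). Concentration: 10 µM. Higher most likely means stronger inhibition; the record gives no direction and few retests gave an IC50. Of about 65,000 compounds tested this way, about 64 (0.098%) reached 50% or more in at least one test.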
CoaBC: 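Coenzyme A biosynthesis protein CoaBC, Mycobacterium tuberculosis (UniProt P9WNZ1). Enzyme assay of CoaBC with a phosphate dye (Biomol Green) read at 650 nm. Compounds at 30 µM. Direction is inferred from only a few compounds that gave an IC50; most scored high, so higher reads as stronger inhibition. Most strong results did not repeat in a second test. Size under these conditions: about 67,000 compounds, about 40 of them at 50% or above in at least one test.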

The filed quantity is “Percent Effect” (%). The record does not define 0% and 100%; most values in the screen are far below 50% and negative numbers occur (in some assays of this library far below -100). This is an unselected part of the compounds tested. Two or more numbers in one place are separate tests of the same structure; such repeats can differ widely.

* CCCn1cc(S(=O)(=O)N(C)Cc2nonc2C)c(C)n1 | LiHisRS: 12.77%; MtTrpRS: -7.815%; CoaBC: 0.3681%
* Cc1cc(C)nc(C2CCN(C(=O)CCn3nnc4ccccc43)C2)n1 (stereo not shown) | LiHisRS: 6.207%; MtTrpRS: -5.176%; CoaBC: -0.3708%
* C=CNC(=O)c1nnc2ccc(N3CCOCC3)cc2n1 | LiHisRS: 17.24%; MtTrpRS: -0.9067%; CoaBC: -1.386%
* CN(CCCc1n[nH]c(N)c1C#N)C(=O)Nc1cc(Cl)cc(Cl)c1 | LiHisRS: 3.226%; MtTrpRS: -3.306%; CoaBC: 2.781%
* Cc1cc(C(=O)N2CCC3(CC2)C(=O)N(C)CCN3CC2CC2)c(C)o1 | LiHisRS: -7.921%; CoaBC: -2.599%
* CCN1C[C@H]2CCN(C(=O)Nc3ccccc3C)CC[C@H]2S1(=O)=O | LiHisRS: -3.883%; MtTrpRS: -1.536%; CoaBC: -3.562%
* O=C(CC1CSc2nccc(=O)n21)NCc1cc(-c2ccco2)on1 (stereo not shown) | LiHisRS: 15.25%; MtTrpRS: -2.445%; CoaBC: 0.3764%
* COCC1CC2(CCN(C(=O)c3occc3C)CC2)CO1 (stereo not shown) | LiHisRS: 4.854%; MtTrpRS: -2.315%; CoaBC: 2.915%
* CC(Cn1cccn1)NCc1csc(-c2ccsc2)n1 (stereo not shown) | LiHisRS: 16.52%; MtTrpRS: -43.58%; CoaBC: 3.435%
* Cc1noc([C@@]23CCO[C@@H]2CCN(C(=O)C2CCOCC2)C3)n1 | LiHisRS: 15.09%; MtTrpRS: 3.673%; CoaBC: 2.411%
* CNc1nc(C2CCCCN2C(=O)COC)nc2c1CN(C)CC2 (stereo not shown) | LiHisRS: 18.84%; CoaBC: -0.4854%
* CNC(=O)c1cccc(CN2CCC(N(C)Cc3ncc(C)o3)C2)c1 (stereo not shown) | LiHisRS: 13.39%; MtTrpRS: 8.767%; CoaBC: 13.49%
* Cc1cc(C(=O)NC2CCCOc3cc(Cl)ccc32)n(C)n1 (stereo not shown) | LiHisRS: 0%; MtTrpRS: -1.584%; CoaBC: 5.097%
* O=C(CCNC(=O)c1cnccn1)Nc1ncc[nH]1 | LiHisRS: 15.79%; MtTrpRS: 2.731%; CoaBC: 3.283%
* CC[C@@H]1N(Cc2ccc(C)o2)CCC[C@]12CCC(=O)N2CCOC | LiHisRS: 5.556%; MtTrpRS: 10.25%; CoaBC: -2.963%
* Cc1nnc([C@@H]2CC[C@@H]3[C@@H](CCN3S(=O)(=O)C3CC3)O2)o1 | LiHisRS: 11.76%; MtTrpRS: -6.008%; CoaBC: 2.792%
* NC(=O)CN1CCCN(C(=O)Cc2ccc(F)c(Br)c2)CC1 | LiHisRS: 14.86%; MtTrpRS: -2.956%; CoaBC: 2.477%
* CCC(O)CN1CCN(C(=O)c2cccn2Cc2ccncc2)CC1 (stereo not shown) | LiHisRS: 7.143%; MtTrpRS: 10.25%; CoaBC: -2.273%
* O=C1CC(c2cccc(O)c2)c2sc(C(=O)O)c(-c3ccccc3)c2N1 (stereo not shown) | LiHisRS: -7.619%; MtTrpRS: -0.2506%; CoaBC: -4.825%
* Cc1cc(C)c2nc(CN3CCC(N4CCOC4=O)CC3)cc(O)c2c1 | LiHisRS: 5.556%; MtTrpRS: -4.131%; CoaBC: 5.556%
* Cn1cc(CN2C[C@@H]3CCCO[C@@H]3[C@H](NC(=O)CC3CC3)C2)cn1 | LiHisRS: -2.857%; MtTrpRS: -1.953%; CoaBC: -11.07%
* COc1cccc2c1N(Cc1nc(C3CC3)no1)CCC2 | LiHisRS: 12.61%; MtTrpRS: 1.833%; CoaBC: -3.089%
* COc1c(CNC2CCc3cc(F)ccc32)c(C)nn1C (stereo not shown) | LiHisRS: -218.8%; MtTrpRS: 2.421%; CoaBC: 1.581%
* CCc1nccn1CC1CCCN1S(=O)(=O)Cc1ccccc1 (stereo not shown) | LiHisRS: 12.5%; MtTrpRS: -7.398%; CoaBC: 20.91% & 7.732%

The last 2 entries again:

COc1c(CNC2CCc3cc(F)ccc32)c(C)nn1C (stereo not shown) gave LiHisRS: -218.8%; MtTrpRS: 2.421%; CoaBC: 1.581%.
CCc1nccn1CC1CCCN1S(=O)(=O)Cc1ccccc1 (stereo not shown) gave LiHisRS: 12.5%; MtTrpRS: -7.398%; CoaBC: 20.91% & 7.732%.